The values below come from US5965701A (priority 1997, dated 1999).

A short description of this data set: solution-phase peptide synthesis; BOP or DIC/HOBt. The note with it: whole synthesis, RP-HPLC (two mobile phases) and capillary electrophoresis.

[ ]: non-standard residue; d: D form. dNle = CCCC[C@@H](N)C(=O)O

H-[dF][dF][dNle][dR]-NHEt: the “final HPLC purity” value is listed as over 98%.
